Measured values reported in PubChem BioAssay AID1347131 (National Center for Advancing Translational Sciences (NCATS), 2019).
In all, about 410,000 compounds went through this assay and about 2,000 (0.49%) were called active. Inconclusive means that the source gave no clear call. Such entries were picked first, then a sample of the others. Calls follow the shape of the full dose curve; tested in HEK293 reporter line. Potencies beside an inconclusive call are fits to weak or partial responses and may not hold up.
Potency is read from the fitted curve at half-maximal effect.

Experiment: qHTS Assay for Foot and Mouth Disease Virus Antivirals: Primary Screen against the MLPCN compound library; also: nearly all actives have a fitted effect of over 55% in size
Conditions: FMDV antiviral cell-based qHTS; series mostly up to 57.9 µM
For CC(C)NC(=O)/C(C#N)=C/c1cccc(NC(=O)c2ccccc2Cl)c1, the Potency was inconclusive: 14.1 µM [inhibitor, partial curve, poor fit]. For CCOC(=O)c1cccc(NC(=O)CSc2nc3cccnc3n2C)c1, the Potency was inconclusive: 17.8 µM [inhibitor, partial curve, poor fit]. For Cc1ccc(Nc2cc(C)nc3nc(C)nn23)c(C)c1, the Potency was inconclusive: 0.708 µM [inhibitor, full curve, poor fit]. In the case of CCOC(=O)[C@]12Cc3cc(Cl)ccc3[C@H]1N(CC(=O)OC)C(=O)c1ccccc12, the Potency is reported as inconclusive: 10 µM [inhibitor, full curve, poor fit]. For CN(C)c1ccc(C=C2C(=O)NC(=S)NC2=O)cc1, the Potency was inconclusive: 28.2 µM [inhibitor, partial curve, poor fit]. With Cc1ccc2nc(COc3ccc(N(C)S(=O)(=O)c4ccccc4)cc3)cc(=O)n2c1 the Potency was inconclusive: 31.6 µM [inhibitor, partial curve, poor fit]. In the case of Cc1ccc(NC(=O)c2nc(S(=O)(=O)Cc3ccccc3C)ncc2Cl)cc1C, the Potency is reported as inconclusive: 39.8 µM [inhibitor, partial curve, poor fit]. For C=CC(COCc1ccccc1)N([C@@H](Cc1ccccc1)C(=O)OC)S(=O)(=O)c1ccccc1Br (stereo partly specified), the Potency was “inactive”. For Cc1cc(Cl)n2c(nc3cc(F)c(F)cc32)c1C#N, the Potency was inconclusive: 17.8 µM [inhibitor, partial curve, poor fit]. In the case of O=C(Oc1ccc([N+](=O)[O-])cc1)c1cc(-c2ccccc2)nc2ccccc12, the Potency is reported as inconclusive: 20 µM [inhibitor, partial curve, poor fit]. With O=C(O)c1ccc(Nc2cc(Cl)c3nonc3c2[N+](=O)[O-])cc1 the Potency was inconclusive: 39.8 µM [inhibitor, partial curve, poor fit]. For CCNc1nc2c(c(=O)n(Cc3ccccc3)c(=O)n2C)n1Cc1ccccc1, the Potency was “inactive”. With O=C(Nn1c(C2CCCCC2)nc2ccccc2c1=O)c1ccc([N+](=O)[O-])cc1 the Potency was inconclusive: 8.91 µM [inhibitor, partial curve]. In the case of CC(C)CCN(C(=O)Nc1ccccc1)C(C)c1cccs1 (stereo unspecified), the Potency is reported as inconclusive: 2.24 µM [inhibitor, full curve]. With O=C(c1ccc2c(c1)OCCO2)C1CCN(C(=O)c2ccc(F)c(F)c2)CC1 the Potency was inconclusive: 15.8 µM [inhibitor, single point]. In the case of CCCCOC(=O)/C=C\C(=O)NC(N)=O, the Potency is reported as inconclusive: 28.2 µM [inhibitor, partial curve, poor fit]. With O=C(N/N=C1\CCc2ccccc21)c1ccccc1O the Potency was inconclusive: 25.1 µM [inhibitor, single point]. For O=C(Nc1ccc(S(=O)(=O)N2CCOCC2)cc1)C1CCN(S(=O)(=O)c2ccc(Cl)cc2)CC1, the Potency was inconclusive: 3.16 µM [inhibitor, full curve]. In the case of COc1ccc(N2CCN(c3ncnc4scc(-c5ccc(F)cc5)c34)CC2)cc1, the Potency is reported as inconclusive: 28.2 µM [inhibitor, partial curve, poor fit]. With CC(=O)c1ccc(N2CCN(c3ncnc4c3nc3n4CCCC3)CC2)cc1 the Potency was inconclusive: 17.8 µM [inhibitor, partial curve, poor fit]. With O=C(Nc1ccccc1C(F)(F)F)c1ccc2oc(=O)c(S(=O)(=O)c3ccc(F)cc3)cc2c1 the Potency was inconclusive: 28.2 µM [inhibitor, partial curve, poor fit]. With Cc1ccc2nc(-c3ccc(NS(=O)(=O)c4ccc(F)c(F)c4)cc3)sc2c1 the Potency was inconclusive: 35.5 µM [inhibitor, single point]. With Cc1ccc(-c2csc(=Nc3cccnc3)n2CCCn2ccnc2)cc1C the Potency was inconclusive: 15.8 µM [inhibitor, partial curve, poor fit]. In the case of COc1ccc(N(C)S(=O)(=O)c2ccc3c(c2)oc(=O)n3C)cc1, the Potency is reported as inconclusive: 25.1 µM [inhibitor, single point]. With Cc1ccc(NC(=O)c2cnc(N3CCN(c4ccccn4)CC3)c3ccccc23)c(Br)c1 the Potency was inconclusive: 6.31 µM [inhibitor, partial curve, poor fit]. With Cc1cc(O)c(N=Nc2ccc(C(=O)O)cc2)cc1C the Potency was inconclusive: 20 µM [inhibitor, single point]. For Cc1ccc(NC(=O)c2ccc(NC(=O)c3ccccc3)cc2)cc1C, the Potency was “inactive”. With Cc1ccc(P(=O)(CSC(=N)N)c2ccc(C)cc2)cc1 the Potency was inconclusive: 35.5 µM [inhibitor, single point]. With Cn1c(=O)c2c(nc(N/N=C/c3ccc(OC(=O)c4ccco4)cc3)n2Cc2ccccc2)n(C)c1=O the Potency was inconclusive: 12.6 µM [inhibitor, partial curve, poor fit]. With CCCCN1C(=O)C(CC(=O)NC2CCCC2)CC(C(=O)N2CCOCC2)=C1C (stereo unspecified) the Potency was inconclusive: 39.8 µM [inhibitor, partial curve, poor fit]. In the case of O=c1c2c(-c3cccs3)csc2ncn1/N=C/c1ccccn1, the Potency is reported as inconclusive: 20 µM [inhibitor, single point]. For OC[C@@H]1CN(Cc2ccc(-c3ccccc3)cc2)C[C@H](n2cnc3c(Nc4ccccc4)ncnc32)O1, the Potency was inconclusive: 31.6 µM [inhibitor, partial curve, poor fit]. With COc1cccc(-n2c(=O)c3sc4ccccc4c3n(CC(=O)Nc3ccccc3OC)c2=O)c1 the Potency was inconclusive: 22.4 µM [inhibitor, partial curve, poor fit]. In the case of Cc1ccc(NS(=O)(=O)c2cc(-c3n[nH]c(=O)c4ccccc34)ccc2C)cc1, the Potency is reported as inconclusive: 39.8 µM [inhibitor, single point]. With O=C(Cc1ccc(Cl)cc1)c1c[nH]c(C(=O)NCc2cccnc2)c1 the Potency was inconclusive: 7.94 µM [inhibitor, full curve, poor fit]. In the case of CCCCc1c(-c2cccc(OC)c2)ncn1CCc1ccccc1OC, the Potency is reported as inconclusive: 25.1 µM [inhibitor, partial curve, poor fit].
